In publication PMC7978294:
No constants are given. Whether binding was seen depends on the method and setting. Binding seen in cells or lysates may run through a third protein. Some entries that bind do so weakly or less than the wild type. For some of these results: Where a sequence is shown, tags or fusion partners need not be part of it.

Amino acid sequences for entries named in this document (tags omitted).
UniProt Q9DC51: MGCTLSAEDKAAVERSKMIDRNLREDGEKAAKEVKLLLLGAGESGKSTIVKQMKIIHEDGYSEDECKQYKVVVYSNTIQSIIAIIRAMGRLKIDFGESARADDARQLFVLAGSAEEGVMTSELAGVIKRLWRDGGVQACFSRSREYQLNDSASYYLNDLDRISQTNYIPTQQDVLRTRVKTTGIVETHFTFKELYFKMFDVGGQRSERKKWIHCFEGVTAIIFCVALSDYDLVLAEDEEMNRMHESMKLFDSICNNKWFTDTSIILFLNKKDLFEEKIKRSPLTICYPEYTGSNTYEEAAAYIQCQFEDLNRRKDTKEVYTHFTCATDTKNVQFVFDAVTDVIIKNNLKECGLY
UniProt B2RSH2: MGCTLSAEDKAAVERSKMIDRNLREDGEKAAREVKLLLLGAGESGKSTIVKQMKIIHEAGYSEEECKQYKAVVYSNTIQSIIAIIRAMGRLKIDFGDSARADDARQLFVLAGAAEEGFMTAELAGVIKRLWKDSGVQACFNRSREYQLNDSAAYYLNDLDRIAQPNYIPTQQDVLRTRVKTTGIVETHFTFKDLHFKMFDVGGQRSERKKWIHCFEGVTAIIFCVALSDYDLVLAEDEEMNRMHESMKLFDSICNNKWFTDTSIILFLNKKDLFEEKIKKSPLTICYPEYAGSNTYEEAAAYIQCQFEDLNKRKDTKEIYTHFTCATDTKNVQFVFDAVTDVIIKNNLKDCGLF
UniProt P52332: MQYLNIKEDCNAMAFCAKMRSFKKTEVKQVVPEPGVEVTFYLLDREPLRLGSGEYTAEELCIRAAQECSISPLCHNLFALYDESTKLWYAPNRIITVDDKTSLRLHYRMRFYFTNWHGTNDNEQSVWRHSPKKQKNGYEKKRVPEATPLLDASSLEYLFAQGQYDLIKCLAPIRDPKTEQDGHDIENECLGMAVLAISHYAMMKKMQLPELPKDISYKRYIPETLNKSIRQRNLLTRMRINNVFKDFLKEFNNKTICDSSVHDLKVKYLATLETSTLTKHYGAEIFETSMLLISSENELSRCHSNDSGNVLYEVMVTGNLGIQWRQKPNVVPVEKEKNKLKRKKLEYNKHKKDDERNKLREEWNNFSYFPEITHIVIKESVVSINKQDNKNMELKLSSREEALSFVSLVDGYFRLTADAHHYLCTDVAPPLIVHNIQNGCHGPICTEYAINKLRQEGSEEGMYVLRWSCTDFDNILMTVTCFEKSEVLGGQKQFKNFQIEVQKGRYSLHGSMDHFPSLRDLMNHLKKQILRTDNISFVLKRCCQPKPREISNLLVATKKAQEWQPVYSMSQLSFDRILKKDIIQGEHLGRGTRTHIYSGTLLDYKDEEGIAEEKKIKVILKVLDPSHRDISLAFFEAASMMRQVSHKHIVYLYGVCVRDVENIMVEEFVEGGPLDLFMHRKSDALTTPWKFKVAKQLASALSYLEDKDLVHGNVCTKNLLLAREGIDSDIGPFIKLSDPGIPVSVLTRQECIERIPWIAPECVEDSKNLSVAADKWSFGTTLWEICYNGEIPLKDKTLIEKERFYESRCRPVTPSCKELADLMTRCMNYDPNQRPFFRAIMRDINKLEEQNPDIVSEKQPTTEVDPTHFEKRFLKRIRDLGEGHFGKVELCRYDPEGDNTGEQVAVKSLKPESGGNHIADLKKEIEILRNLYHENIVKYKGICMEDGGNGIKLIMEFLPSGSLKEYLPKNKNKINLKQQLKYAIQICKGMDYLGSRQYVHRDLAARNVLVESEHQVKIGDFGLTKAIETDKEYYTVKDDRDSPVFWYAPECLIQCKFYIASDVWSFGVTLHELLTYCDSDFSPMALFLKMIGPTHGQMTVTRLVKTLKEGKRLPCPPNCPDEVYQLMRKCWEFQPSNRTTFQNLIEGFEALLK

T1: IL-4Rα-WT-Flag (full-length mIL-4Rα fused with Flag) (mouse) (UniProt P16382)
T1 sequence: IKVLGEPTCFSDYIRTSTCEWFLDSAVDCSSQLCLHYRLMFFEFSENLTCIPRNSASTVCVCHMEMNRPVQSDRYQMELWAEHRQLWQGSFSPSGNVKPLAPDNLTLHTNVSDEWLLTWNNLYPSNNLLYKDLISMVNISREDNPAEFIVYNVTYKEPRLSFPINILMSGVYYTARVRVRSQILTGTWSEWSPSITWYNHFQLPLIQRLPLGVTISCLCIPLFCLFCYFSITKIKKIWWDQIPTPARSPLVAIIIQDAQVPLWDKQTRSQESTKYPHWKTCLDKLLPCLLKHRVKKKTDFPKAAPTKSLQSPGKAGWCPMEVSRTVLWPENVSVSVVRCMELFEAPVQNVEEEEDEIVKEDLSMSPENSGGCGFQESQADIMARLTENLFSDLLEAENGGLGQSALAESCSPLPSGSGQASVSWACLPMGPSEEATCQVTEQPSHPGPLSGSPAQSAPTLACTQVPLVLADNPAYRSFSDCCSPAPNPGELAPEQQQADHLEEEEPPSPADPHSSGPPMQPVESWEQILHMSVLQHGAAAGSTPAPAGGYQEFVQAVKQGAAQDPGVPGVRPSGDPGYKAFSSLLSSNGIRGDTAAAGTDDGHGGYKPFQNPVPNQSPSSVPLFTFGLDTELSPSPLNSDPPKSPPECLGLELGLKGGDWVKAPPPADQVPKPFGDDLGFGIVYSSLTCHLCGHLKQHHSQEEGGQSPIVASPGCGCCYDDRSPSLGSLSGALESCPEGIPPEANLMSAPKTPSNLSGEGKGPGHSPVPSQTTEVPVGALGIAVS

T2: IL-4Rα (IL-4 receptor alpha), endogenous mouse (mouse (endogenous in MEFs and murine BMDMs)) (UniProt P16382)
T2 sequence: T1 sequence

B1: APPL1 (adaptor containing a pleckstrin homology (PH) domain, phosphotyrosine-binding (PTB) domain, and leucine zipper motif 1), endogenous mouse (protein, UniProt Q8K3H0 1-707)
chain: MPGIDKLPIEETLEDSPQTRSLLGVFEEDATAISNYMNQLYQAMHRIYDAQNELSAATHLTSKLLKEYEKQRFPLGGDDEVMSSTLQQFSKVIDELSSCHAVLSTQLADAMMFPISQFKERDLKEILTLKEVFQIASNDHDAAINRYSRLSKKRENDKVKYEVTEDVYTSRKKQHQTMMHYFCALNTLQYKKKIALLEPLLGYMQAQISFFKMGSENLNGQLEEFLANIGTSVQNVRREMDGDVETMQQTIEDLEVASDPLYLPDPDPTKFPINRNLTRKAGYLNARNKTGLVSSTWDRQFYFTQGGNLMSQARGDVAGGLAMDIDNCSVMAVDCEDRRYCFQITSFDGKKSSILQAESKKDHEEWICTINNISKQIYLSENPEETAARVNQSALEAVTPSPSFQQRHESLRPGGQSRPPTARTSSSGSLGSESTNLAALSLDSLVAPDTPIQFDIISPVCEDQPGQAKAFGQGGRRTNPFGESGGSTKSETEDSILHQLFIVRFLGSMEVKSDDHPDVVYETMRQILAARAIHNIFRMTESHLLVTCDCLKLIDPQTQVTRLTFPLPCVVLYATHQENKRLFGFVLRTSGGRSESNLSSVCYIFESNNEGEKICDSVGLAKQIALHAELDRRASEKQKEIERVKEKQQKELSKQKQIEKDLEEQSRLIAASSRPNQAGSEGQLVLSSSQSEESDLGEEGKKRESEA

Key:
[1] = molecular target: T1, IL-4Rα-WT-Flag (full-length mIL-4Rα fused with Flag) (mouse); test: co-IP; IP: Flag; IL-4Rα-KO BMDMs stably expressing IL-4Rα-WT-Flag or IL-4Rα-ΔIC-Flag, treated with IL-4 (100 ng/mL)
[2] = molecular target: T2, IL-4Rα (IL-4 receptor alpha), endogenous mouse (mouse (endogenous in MEFs and murine BMDMs)); test: co-IP; endogenous proteins in primary murine BMDMs treated with IL-4 (100 ng/mL, 5 min in Figure 1A); IP: IL-4Rα in Figure 2G, BMDMs with empty vector or dn-Gαi1/3
[3] = molecular target: T2, IL-4Rα (IL-4 receptor alpha), endogenous mouse (mouse (endogenous in MEFs and murine BMDMs)); test: co-IP; endogenous proteins in WT and Gαi1/3 DKO MEFs treated with IL-4 (Figure S1H); protocol as in earlier studies
[4] = molecular target: T2, IL-4Rα (IL-4 receptor alpha), endogenous mouse (mouse (endogenous in MEFs and murine BMDMs)); test: co-IP; endogenous proteins in primary murine BMDMs treated with IL-4 (100 ng/mL, 5 min in Figure 1A); IP: IL-4Rα in Figure 2G, BMDMs with empty vector or dn-Gαi1/3; remark: listed apart in the source

Molecule | binding [1] | binding [2] | binding [3] | binding [4]
Gαi3, endogenous mouse (from UniProt Q9DC51 1-354) | binds | binds |  | 
Gαi1, endogenous mouse (from UniProt B2RSH2 1-354) | binds | binds |  | 
JAK1, endogenous mouse (from UniProt P52332 1-1153) (enzyme) |  |  | binds | 
B1 | binds |  |  | binds
